No constants are given. Whether binding was seen depends on the method and setting. Binding seen in cells or lysates may run through a third protein. These calls come from enrichment with a bait or labelling near it, and not all partners need be listed. Tags and fused reporters may be left off the sequences shown.
Biological target: T1, GST-Rhes (Ras homolog enriched in the striatum) (not stated (rat or human cDNA cloned)) (UniProt Q96D21)
T1 sequence: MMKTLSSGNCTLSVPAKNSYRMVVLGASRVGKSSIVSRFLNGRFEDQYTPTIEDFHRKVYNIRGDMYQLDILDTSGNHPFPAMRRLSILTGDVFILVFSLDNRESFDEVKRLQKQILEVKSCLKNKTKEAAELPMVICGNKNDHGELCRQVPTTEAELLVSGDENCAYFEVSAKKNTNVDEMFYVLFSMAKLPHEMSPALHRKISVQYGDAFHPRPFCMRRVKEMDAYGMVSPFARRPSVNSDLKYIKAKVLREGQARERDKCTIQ
Test: affinity purification with mass spectrometry; GST-Rhes + mSUMO3 against GST + mSUMO3 (control) affinity purified on glutathione beads from HEK293 lysates; LC-MS/MS in biological triplicate

By UniProt entry, the sequences of proteins in these tests, tags left out.
UniProt O00571: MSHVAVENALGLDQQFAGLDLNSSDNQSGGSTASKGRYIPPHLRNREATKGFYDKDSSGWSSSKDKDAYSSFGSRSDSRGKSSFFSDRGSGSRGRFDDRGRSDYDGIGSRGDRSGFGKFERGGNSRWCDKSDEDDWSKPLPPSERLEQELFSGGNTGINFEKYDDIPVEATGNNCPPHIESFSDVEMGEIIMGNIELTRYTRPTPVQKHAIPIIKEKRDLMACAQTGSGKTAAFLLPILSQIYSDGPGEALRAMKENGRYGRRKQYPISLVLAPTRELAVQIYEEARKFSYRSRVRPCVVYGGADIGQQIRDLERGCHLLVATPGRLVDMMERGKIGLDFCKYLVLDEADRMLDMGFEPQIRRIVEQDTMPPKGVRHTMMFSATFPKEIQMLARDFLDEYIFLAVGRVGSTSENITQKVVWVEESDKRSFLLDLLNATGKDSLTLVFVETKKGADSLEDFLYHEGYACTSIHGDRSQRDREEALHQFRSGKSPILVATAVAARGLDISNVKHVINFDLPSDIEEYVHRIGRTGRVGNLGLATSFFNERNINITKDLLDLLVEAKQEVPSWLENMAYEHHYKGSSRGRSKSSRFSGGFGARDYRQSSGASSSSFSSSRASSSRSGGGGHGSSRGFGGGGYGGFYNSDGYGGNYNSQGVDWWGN
UniProt Q15149: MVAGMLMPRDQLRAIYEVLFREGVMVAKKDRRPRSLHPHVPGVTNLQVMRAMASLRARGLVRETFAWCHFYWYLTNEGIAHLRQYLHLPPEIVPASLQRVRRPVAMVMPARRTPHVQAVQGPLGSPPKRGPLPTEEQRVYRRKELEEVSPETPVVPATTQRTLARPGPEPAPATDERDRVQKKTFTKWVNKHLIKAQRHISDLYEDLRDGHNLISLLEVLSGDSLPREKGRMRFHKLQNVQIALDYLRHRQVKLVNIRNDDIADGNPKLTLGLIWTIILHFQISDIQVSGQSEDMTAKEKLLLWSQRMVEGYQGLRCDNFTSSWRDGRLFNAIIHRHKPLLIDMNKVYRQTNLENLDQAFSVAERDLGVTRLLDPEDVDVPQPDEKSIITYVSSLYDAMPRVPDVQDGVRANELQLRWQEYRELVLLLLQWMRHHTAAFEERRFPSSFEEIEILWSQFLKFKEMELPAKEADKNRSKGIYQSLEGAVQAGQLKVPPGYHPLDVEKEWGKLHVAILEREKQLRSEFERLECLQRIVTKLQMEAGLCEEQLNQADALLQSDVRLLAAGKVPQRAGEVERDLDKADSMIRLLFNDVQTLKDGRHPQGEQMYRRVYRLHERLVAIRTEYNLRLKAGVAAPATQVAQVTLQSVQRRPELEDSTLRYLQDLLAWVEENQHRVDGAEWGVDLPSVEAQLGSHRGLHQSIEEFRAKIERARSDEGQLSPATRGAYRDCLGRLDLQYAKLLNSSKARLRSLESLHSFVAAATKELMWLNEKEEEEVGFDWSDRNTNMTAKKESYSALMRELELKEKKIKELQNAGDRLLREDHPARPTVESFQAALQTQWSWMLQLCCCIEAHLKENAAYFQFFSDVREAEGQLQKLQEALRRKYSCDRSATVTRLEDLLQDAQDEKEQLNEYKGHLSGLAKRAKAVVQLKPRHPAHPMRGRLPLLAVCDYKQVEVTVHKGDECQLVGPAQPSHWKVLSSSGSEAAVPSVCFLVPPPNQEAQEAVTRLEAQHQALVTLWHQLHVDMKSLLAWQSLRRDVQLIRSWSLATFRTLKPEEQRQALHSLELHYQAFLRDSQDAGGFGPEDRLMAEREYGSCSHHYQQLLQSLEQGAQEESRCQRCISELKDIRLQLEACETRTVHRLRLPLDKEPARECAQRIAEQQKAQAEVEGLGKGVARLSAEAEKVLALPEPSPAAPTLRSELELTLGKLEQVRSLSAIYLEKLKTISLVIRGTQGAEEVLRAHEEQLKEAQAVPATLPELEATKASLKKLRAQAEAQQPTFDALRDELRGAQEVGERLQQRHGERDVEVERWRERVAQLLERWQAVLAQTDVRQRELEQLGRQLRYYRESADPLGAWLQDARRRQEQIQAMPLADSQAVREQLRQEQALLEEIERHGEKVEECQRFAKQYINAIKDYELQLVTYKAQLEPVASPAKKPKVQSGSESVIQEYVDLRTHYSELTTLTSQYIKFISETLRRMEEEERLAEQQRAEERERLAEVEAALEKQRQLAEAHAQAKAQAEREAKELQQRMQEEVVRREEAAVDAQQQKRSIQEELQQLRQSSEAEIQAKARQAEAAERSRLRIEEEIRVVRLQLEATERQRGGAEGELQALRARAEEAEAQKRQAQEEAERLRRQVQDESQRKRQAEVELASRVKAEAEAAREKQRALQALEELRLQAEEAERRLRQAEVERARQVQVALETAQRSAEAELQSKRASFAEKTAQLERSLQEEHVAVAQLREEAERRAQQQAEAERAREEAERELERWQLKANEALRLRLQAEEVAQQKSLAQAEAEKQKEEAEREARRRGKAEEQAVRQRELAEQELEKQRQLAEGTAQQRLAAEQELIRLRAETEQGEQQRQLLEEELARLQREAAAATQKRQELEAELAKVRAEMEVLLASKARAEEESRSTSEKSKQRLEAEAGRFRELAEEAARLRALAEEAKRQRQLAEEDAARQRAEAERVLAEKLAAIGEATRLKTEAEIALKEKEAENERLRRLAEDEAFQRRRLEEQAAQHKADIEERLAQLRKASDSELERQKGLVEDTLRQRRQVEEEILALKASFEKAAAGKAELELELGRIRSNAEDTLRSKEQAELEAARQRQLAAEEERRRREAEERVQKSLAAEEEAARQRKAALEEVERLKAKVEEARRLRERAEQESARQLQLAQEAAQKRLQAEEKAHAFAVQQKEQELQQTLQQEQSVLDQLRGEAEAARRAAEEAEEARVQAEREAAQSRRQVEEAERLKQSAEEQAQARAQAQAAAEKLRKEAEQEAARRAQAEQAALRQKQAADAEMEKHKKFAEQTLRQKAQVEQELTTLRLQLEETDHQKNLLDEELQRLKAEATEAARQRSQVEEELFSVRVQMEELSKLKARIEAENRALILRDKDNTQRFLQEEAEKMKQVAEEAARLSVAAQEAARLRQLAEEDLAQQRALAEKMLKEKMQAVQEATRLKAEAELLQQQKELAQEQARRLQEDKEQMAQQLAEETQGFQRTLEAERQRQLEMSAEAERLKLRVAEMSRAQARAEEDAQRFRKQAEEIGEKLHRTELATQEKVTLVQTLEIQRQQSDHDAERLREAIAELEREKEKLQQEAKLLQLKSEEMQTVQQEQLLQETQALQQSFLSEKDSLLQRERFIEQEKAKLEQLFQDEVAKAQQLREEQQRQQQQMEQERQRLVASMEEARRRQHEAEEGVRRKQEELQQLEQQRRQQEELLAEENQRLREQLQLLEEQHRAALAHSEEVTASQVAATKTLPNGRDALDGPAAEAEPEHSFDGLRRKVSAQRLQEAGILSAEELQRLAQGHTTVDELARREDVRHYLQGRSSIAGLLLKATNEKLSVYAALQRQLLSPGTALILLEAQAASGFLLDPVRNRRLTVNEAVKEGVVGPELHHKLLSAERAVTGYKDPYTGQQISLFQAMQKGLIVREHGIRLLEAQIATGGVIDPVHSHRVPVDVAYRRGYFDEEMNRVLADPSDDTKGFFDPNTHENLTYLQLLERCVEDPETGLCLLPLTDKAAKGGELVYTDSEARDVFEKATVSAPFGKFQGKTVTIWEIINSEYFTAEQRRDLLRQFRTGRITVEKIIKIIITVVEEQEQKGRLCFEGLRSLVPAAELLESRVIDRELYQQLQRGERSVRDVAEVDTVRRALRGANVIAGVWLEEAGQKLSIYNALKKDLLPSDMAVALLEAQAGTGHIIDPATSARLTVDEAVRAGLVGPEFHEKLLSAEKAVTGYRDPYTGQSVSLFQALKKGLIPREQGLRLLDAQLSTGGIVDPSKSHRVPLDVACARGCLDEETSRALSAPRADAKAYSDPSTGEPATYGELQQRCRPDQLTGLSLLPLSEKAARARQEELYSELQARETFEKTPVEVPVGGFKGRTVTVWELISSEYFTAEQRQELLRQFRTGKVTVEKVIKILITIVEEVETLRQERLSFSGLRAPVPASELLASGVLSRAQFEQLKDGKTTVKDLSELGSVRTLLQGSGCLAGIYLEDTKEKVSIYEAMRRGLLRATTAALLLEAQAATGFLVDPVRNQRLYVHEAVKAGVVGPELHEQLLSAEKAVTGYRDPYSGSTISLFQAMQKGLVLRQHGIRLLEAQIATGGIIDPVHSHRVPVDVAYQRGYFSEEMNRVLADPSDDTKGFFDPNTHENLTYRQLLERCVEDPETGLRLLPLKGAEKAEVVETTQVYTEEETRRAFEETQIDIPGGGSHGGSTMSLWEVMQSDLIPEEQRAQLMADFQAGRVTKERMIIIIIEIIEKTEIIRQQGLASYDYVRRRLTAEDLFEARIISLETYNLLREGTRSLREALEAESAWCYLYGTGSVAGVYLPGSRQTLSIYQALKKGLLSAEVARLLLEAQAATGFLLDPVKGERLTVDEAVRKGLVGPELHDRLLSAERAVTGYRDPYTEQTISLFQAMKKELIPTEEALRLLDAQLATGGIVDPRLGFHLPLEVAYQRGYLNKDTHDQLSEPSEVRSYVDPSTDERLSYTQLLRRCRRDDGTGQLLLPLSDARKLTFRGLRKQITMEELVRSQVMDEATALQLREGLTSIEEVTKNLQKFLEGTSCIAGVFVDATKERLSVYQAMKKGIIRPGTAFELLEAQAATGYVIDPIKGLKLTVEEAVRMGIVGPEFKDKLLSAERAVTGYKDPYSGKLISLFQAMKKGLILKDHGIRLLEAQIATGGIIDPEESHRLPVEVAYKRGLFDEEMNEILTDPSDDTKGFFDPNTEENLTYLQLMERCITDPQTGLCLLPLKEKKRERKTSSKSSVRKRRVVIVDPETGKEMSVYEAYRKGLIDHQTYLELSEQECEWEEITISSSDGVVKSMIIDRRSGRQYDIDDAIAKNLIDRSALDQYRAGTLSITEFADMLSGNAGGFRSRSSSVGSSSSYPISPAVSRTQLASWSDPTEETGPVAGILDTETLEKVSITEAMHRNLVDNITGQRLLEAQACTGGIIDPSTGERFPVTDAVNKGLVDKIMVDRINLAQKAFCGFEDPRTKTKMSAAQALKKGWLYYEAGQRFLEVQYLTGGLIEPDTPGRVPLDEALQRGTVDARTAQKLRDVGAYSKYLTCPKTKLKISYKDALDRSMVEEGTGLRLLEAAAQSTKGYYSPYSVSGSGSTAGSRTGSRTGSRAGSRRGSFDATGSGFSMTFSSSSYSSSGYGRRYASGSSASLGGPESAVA

| Substance | binding |
| --- | --- |
| DDX3X (from UniProt O00571 1-662) | binds |
| PLEC (from UniProt Q15149 1-4684) | binds |

Source: publication PMC11001699
